Source: PubChem BioAssay AID1347075 (National Center for Advancing Translational Sciences (NCATS), 2019)
The campaign covered roughly 400,000 compounds. About 5,500 (1.4%) were called active. Inconclusive results, whose numbers are uncertain, are shown with a selection of clear calls. Calls come from the whole dose curve; as a rule, active = well fitted cell-killing curve with a large enough effect; inconclusive = small, poorly fitted or top-dose-only effect, or effect the other way; inactive = flat fitted curve, though single readings scatter. Where the call is inconclusive, the potency comes from a doubtful curve fit.

Experiment: qHTS assay for MDR1-selective chemotherapeutics: Primary screen using the parental adenocarcinoma cell KB-3-1; note: nearly all actives have a fitted effect of over 60% in size
Conditions: KB-3-1 viability, CellTiter-Glo ATP luminescence, 72 h; activity change, negative = cytotoxic: at 46.1 µM (top of the series)
How it was run: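 Multi-concentration cytotoxicity screen in KB-3-1 cells grown in DMEM lacking phenol red with 10% FBS. After 72 h at 37 °C with compound, ATP-dependent luminescence was recorded.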
% is set by controls: 0 for no effect and ±100 for the full control effect; potency is the fitted concentration of half-maximal effect.

Compound | Potency | activity change, negative = cytotoxic
CCCOc1cccc(C2C(C(=O)c3cc4ccccc4o3)=C(O)C(=O)N2c2cc(C)on2)c1 (stereo not drawn) | inconclusive: 29.1 µM [cytotoxic, single point] | –
Cc1ccc(C)c(S(=O)(=O)N2CCN(Cc3ccc(O)c4ncccc34)CC2)c1 | inconclusive: 10.3 µM [cytotoxic, partial curve, poor fit] | –
Cc1ccc(-c2nc3scc(CCNC(=O)Cc4ccc(Cl)cc4)n3n2)cc1 | inactive | –
CCOc1ccc(N(C(=O)CC(C)C)S(=O)(=O)c2ccc3c(c2)oc(=O)n3C)cc1 | inconclusive: 5.17 µM [cytotoxic, full curve, poor fit] | –
Nc1ncnc2c1ncn2[C@@H]1O[C@H](C(=O)NCCCN2CCCC2=O)[C@@H](O)[C@H]1O | inactive | –
Nc1nc2n(n1)C(c1cccs1)CC(c1ccccc1)N2 (stereo not drawn) | inactive | –
Cc1nc2c(C)[n+](CC(=O)c3ccccc3)ccc2n1C | inconclusive: 29.1 µM [cytotoxic, partial curve, poor fit] | –
CC[C@]12c3[nH]c4ccc(Cl)cc4c3CCN1C(=O)[C@@H](CC(=O)NCC13CC4CC(CC(C4)C1)C3)C[C@@H]2C(=O)N1CCN(C(=O)c2ccco2)CC1 | inconclusive: 29.1 µM [cytotoxic, partial curve, poor fit] | –
CCC(C)NC(=O)c1ccccc1NC(=O)c1ccc(CSc2ccc(C)cc2)cc1 (stereo not drawn) | inactive | –
c1csc(C(c2nnnn2C2CCCCC2)N2CCCC3(CCCCC3)C2)c1 (stereo not drawn) | inconclusive: 23.1 µM [cytotoxic, single point] | –
O=C1NCCN(Cc2ccc(F)cc2)C1=O | inactive | –
O=C(CSc1ccncc1)Nc1ccc(S(=O)(=O)Nc2nccs2)cc1 | – | inconclusive: -72.4%
Cc1nnc(-c2ccccc2)c(=O)n1/N=C/c1c(O)ccc2ccccc12 | inconclusive: 6.51 µM [cytotoxic, partial curve] | –
CN(CC(=O)Nc1c(Cl)cccc1Cl)C(=O)CNC(=O)c1sc2ccccc2c1Cl | inactive | –
CCOC(=O)C1(C)CCN1C(=O)c1cncc(Br)c1 (stereo not drawn) | inactive | –
COc1ccc(-c2noc(CN(C(=O)COc3cc(C)c(Br)c(C)c3)C(C)C)n2)cc1 | inconclusive: 18.4 µM [cytotoxic, partial curve, poor fit] | –
C[C@@H]1CN([C@H](C)CO)C(=O)c2cccc(NC(=O)NC3CCCCC3)c2O[C@@H]1CN(C)C(=O)Nc1ccc(C(F)(F)F)cc1 | inconclusive: 29.1 µM [cytotoxic, single point] | –
CCOc1ccc(CCN2C(=S)N([C@@H](Cc3ccc(O)cc3)CN3CCC[C@@H]3CN3C(=S)NC[C@@H]3CC(C)C)C[C@@H]2Cc2ccc(O)cc2)cc1 | inconclusive: 29.1 µM [cytotoxic, single point] | –

Two entries from above, reformatted.
Compound	Potency	activity change, negative = cytotoxic
Nc1nc2n(n1)C(c1cccs1)CC(c1ccccc1)N2 (stereo not drawn)	inactive	–
Cc1nc2c(C)[n+](CC(=O)c3ccccc3)ccc2n1C	inconclusive: 29.1 µM [cytotoxic, partial curve, poor fit]	–
